For five molecules, binding results are on record in doi:10.1101/2020.11.11.378323.

Amino acid sequences for entries named in this document (tags omitted).
UniProt P19538, whole entry: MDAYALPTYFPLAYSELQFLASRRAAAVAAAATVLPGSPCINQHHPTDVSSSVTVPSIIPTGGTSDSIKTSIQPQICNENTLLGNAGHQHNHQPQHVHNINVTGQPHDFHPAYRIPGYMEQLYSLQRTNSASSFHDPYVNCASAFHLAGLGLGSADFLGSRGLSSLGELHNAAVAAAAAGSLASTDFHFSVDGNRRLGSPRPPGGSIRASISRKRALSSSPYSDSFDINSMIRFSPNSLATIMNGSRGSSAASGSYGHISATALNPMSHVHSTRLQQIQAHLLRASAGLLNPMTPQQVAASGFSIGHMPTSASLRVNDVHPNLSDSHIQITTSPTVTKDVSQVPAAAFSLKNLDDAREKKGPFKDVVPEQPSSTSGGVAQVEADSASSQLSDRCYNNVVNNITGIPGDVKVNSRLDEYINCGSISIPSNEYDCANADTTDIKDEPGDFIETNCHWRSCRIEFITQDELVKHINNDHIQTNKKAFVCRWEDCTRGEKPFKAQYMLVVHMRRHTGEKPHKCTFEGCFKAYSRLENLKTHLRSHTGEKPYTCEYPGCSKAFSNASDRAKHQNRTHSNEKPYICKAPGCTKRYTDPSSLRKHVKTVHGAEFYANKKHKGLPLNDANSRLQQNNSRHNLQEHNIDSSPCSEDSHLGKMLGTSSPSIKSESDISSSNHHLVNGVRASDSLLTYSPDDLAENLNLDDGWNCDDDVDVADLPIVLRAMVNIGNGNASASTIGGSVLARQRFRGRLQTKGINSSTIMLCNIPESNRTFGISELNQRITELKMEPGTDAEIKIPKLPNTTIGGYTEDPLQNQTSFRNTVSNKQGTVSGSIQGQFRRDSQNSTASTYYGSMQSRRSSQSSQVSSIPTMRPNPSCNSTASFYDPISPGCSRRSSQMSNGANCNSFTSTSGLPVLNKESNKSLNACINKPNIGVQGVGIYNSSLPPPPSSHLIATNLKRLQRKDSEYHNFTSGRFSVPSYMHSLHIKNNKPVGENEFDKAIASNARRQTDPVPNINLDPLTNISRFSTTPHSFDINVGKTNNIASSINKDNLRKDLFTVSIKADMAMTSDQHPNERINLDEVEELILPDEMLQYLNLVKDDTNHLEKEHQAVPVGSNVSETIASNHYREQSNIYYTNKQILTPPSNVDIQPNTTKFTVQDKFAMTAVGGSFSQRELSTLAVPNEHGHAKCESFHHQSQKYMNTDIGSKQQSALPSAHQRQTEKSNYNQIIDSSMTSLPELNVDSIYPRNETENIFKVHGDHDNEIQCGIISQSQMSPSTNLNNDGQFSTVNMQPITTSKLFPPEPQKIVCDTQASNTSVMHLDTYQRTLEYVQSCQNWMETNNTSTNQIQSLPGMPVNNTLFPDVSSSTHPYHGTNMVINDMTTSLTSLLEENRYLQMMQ
UniProt P07247, whole entry: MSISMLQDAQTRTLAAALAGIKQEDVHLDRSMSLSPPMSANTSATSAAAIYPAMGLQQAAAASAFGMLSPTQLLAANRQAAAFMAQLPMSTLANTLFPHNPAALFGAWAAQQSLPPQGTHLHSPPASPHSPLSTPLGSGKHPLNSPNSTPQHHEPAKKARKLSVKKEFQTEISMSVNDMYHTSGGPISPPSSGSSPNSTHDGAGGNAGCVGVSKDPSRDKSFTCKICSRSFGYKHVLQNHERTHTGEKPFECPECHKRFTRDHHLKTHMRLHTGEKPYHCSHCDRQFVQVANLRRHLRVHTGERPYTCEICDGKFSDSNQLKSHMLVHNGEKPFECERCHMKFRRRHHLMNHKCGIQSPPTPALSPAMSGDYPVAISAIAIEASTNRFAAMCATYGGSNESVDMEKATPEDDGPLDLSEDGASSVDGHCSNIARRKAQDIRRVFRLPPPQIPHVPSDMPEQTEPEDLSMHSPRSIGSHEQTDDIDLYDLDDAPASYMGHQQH
UniProt P23803, whole entry: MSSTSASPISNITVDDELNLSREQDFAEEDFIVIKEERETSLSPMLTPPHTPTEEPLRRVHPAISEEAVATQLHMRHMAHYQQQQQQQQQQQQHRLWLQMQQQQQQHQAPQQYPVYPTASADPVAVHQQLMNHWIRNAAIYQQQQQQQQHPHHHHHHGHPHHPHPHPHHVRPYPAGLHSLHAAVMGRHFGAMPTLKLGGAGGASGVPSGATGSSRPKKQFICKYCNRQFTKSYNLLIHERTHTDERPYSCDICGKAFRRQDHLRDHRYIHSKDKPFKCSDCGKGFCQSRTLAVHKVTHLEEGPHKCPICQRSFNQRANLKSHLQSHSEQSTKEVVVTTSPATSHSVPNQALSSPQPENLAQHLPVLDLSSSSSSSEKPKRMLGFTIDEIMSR

Results are given in words; binding and its absence hold for the method and conditions named. Some results given as binding are weak or reduced against the parent protein; the word gives no strength.

Experiment in all cases: two-hybrid
Assay [1] deals with T1, male-specific lethal (MSL)1 (Drosophila) (UniProt P50535).
T1 sequence: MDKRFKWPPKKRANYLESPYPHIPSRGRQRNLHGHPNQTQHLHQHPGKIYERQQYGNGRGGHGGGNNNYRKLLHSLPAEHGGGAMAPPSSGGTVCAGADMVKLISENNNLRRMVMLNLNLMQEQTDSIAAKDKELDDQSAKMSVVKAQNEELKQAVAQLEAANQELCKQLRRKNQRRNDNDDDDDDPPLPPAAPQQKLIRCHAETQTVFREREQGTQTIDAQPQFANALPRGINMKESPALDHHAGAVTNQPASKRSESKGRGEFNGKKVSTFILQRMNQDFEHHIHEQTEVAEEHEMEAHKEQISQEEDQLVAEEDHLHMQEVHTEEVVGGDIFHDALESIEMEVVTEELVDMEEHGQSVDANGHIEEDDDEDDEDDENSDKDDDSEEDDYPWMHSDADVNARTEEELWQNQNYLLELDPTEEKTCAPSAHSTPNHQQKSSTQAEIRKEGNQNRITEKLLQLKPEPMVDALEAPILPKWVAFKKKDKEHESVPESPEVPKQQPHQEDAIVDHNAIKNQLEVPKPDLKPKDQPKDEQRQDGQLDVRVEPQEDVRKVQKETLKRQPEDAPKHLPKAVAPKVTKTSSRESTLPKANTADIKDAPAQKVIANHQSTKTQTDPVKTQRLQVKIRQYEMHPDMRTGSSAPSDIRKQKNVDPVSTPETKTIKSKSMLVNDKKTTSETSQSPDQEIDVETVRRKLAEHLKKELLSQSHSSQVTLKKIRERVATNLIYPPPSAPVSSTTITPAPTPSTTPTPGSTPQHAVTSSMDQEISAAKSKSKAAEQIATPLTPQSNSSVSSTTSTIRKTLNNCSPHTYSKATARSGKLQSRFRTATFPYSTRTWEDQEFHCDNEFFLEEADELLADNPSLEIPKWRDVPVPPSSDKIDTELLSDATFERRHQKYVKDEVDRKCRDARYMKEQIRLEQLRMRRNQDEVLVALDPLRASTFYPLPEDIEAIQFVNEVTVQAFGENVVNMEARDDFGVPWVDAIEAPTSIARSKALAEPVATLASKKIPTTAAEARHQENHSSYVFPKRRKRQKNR

For assay [2], the target named is T2, 178-aa N-terminal region of MSL1 (Drosophila) (UniProt P50535).
T2 sequence: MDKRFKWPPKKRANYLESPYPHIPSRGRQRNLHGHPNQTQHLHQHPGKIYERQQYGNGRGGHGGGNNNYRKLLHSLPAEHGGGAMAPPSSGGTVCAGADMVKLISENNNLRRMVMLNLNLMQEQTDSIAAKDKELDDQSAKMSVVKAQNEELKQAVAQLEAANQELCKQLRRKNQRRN

The target in assay [3] is T3, male-specific lethal (MSL)2 (Drosophila) (UniProt P50534).
T3 sequence: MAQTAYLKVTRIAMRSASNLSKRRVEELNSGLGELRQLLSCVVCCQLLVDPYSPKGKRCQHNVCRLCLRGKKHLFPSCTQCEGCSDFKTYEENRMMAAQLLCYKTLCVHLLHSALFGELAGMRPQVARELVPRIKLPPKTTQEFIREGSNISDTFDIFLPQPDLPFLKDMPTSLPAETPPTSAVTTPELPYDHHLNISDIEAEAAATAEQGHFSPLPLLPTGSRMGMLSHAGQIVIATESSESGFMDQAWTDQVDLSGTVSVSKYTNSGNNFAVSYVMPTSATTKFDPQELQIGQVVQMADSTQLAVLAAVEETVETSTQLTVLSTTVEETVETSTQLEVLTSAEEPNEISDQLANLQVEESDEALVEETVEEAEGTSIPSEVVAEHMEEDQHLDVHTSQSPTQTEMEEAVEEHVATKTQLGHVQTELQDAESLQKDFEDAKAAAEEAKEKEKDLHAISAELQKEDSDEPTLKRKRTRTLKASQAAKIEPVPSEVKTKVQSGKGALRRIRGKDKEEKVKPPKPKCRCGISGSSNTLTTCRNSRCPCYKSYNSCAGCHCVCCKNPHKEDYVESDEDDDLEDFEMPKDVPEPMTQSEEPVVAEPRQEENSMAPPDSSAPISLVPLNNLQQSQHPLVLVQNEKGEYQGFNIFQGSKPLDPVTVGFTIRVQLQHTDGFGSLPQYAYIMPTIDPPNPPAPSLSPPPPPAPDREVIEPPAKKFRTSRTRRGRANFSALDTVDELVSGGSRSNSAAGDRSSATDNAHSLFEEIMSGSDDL

Consider Ci (from UniProt P19538 1-1397), for which the binding result in assay [1] and in assay [2] was “binds” in each case.

Take Kruppel (from UniProt P07247 1-502): the binding entry in assay [1] and in assay [2] was “binds” each time.

Turning to Odd (from UniProt P23803 1-392), the binding result in assay [1] and in assay [2] was “binds” in each case.

B1: chromatin-linked adaptor for MSL proteins (protein, UniProt Q9V9N4 1-561)
chain: MEDLTKNIIFTNAINGQPATIQYQTADGTILKQPKIEGQKTEQQPTFYYTTNGNGGTVNLAQLATTDDNKTCYIAQPVGGYNYALVNGMPLNQGAALGIATVDAQGRIQIVNQNKPIAANTISNISFKCDVCSDMFPHLALLNAHKRMHTDGEQQQQQQHNAQAGGDSIAVVSAQGLVQAQNIIGNGQMGQIQIVSSDTLEPVQQSVMQQQQHESKASKCINCGSSMLQQSKRKGPKQVRCESCMQAEQTAQQQQQLFVAQDGQMAHPVQIISTTPQAQAQLQQIVAAQTGGTTPKREASSGSGHHPVKKRNSQQMTKCQKCNGSGVVLVGQHSHASHSGVGGSVKQSVTVKTENPSKPFSCNICGGLFSRYSSLWSHKKLHSGEKNYKCSICGLAFAKAVYLKNHARIHTGEKPYKCQTCGMQFSQSPHLKNHERTHSGERPYVCGVCDKGFARHATLWNHRRIHTGEKPYKCEICGSAFSQAAHLKNHAKVHSGEKPYKCEICSAAFADRFALKRHRGIHQKYGQTAPRQTSSDGMIVHKQEIPDMEDEAQQEVIIGGL
Take B1: the binding entry in assay [3] is recorded as “binds”.

B2: Snail (protein, UniProt P08044 1-390)
chain: MAANYKSCPLKKRPIVFVEERLPQTEALALTKDSQFAQDQPQDLSLKRGRDEETQDYQQPEPKRDYVLNLSKTPERNSSSSSNSCLLSPPVEAQDYLPTEIHMRGLTAGTTGYTTATPTTINPFQSAFVMAAGCNPISALWSSYQPHLAAFPSPASSMASPQSVYSYQQMTPPSSPGSDLETGSEPEDLSVRNDIPLPALFHLFDEAKSSSSGASVSSSSGYSYTPAMSASSASVAANHAKNYRFKCDECQKMYSTSMGLSKHRQFHCPAAECNQEKKTHSCEECGKLYTTIGALKMHIRTHTLPCKCPICGKAFSRPWLLQGHIRTHTGEKPFQCPDCPRSFADRSNLRAHQQTHVDVKKYACQVCHKSFSRMSLLNKHSSSNCTITIA
As to B2, the binding result in assay [1] is “binds”.
